No constants are given. Whether binding was seen depends on the method and setting. Binding seen in cells or lysates may run through a third protein. These calls come from enrichment with a bait or labelling near it, and not all partners need be listed.

The chains behind the UniProt entries cited, without tags or fusion partners.
UniProt P35222: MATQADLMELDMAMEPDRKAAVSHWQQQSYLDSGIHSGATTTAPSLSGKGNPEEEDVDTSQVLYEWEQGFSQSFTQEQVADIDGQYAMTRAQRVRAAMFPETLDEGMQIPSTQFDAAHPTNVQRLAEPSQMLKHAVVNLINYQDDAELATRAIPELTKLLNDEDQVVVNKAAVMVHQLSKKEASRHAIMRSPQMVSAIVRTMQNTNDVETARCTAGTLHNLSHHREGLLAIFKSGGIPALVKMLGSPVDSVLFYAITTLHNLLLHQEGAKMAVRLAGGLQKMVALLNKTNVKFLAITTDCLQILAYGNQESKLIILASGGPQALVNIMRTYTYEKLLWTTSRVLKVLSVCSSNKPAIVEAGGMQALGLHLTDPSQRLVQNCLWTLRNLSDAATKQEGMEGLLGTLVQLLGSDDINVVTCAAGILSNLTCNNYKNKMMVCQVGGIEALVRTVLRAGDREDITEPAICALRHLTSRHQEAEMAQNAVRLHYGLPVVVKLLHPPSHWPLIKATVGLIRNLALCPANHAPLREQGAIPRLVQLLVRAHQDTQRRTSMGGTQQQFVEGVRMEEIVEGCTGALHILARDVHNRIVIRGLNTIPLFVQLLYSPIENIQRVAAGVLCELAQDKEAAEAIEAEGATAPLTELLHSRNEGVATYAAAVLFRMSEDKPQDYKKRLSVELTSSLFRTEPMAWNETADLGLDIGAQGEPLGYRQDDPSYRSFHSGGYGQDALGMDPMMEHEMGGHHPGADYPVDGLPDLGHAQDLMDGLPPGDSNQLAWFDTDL

The assay concerns the target T1, DNASE1L3 (deoxyribonuclease γ), overexpressed in Huh7 cells (human) (UniProt Q13609).
T1 sequence: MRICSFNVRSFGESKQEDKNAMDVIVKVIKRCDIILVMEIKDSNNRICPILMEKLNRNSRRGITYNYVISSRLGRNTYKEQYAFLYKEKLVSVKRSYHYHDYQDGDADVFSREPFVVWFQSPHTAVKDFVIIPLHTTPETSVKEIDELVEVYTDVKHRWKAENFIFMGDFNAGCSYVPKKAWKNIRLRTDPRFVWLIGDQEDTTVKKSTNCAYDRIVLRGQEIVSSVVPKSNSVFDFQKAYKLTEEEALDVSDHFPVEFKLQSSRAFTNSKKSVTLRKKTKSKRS
As to the kind of experiment: affinity purification with mass spectrometry; IP of DNASE1L3 complexes from extract of DNASE1L3-overexpressing Huh7 cells with specific antibody, IgG as control; 5 mg protein, 4 μg antibody, overnight at 4°C; silver staining and mass spectrometry.

Regarding “β-catenin, in Huh7 cells (from UniProt P35222 1-781)”, the binding result was “binds”.

The values are drawn from paper PMC9436914.
